These are yes or no findings as the source states them, for the method shown. In cells and extracts the contact can be indirect. Some binding calls cover weakened binding; strength is not graded here.
Molecular target: p62 (human (endogenous in HEC-1A and KLE)) (UniProt Q13501)
Assay: co-IP; lysates of HEC-1A and KLE cells incubated with antibodies specific for HK2, HMGCS1 and P62, agarose beads, western blot; in KLE cells also after 10 uM 3-BrPA (HK2 inhibitor) for 24 h

Row | binding | Binder
1 | binds | HK2 (enzyme, UniProt P52789 1-917) MIASHLLAYFFTELNHDQVQKVDQYLYHMRLSDETLLEISKRFRKEMEKGLGATTHPTAAVKMLPTFVRSTPDGTEHGEFLALDLGGTNFRVLWVKVTDNGLQKVEMENQIYAIPEDIMRGSGTQLFDHIAECLANFMDKLQIKDKKLPLGFTFSFPCHQTKLDESFLVSWTKGFKSSGVEGRDVVALIRKAIQRRGDFDIDIVAVVNDTVGTMMTCGYDDHNCEIGLIVGTGSNACYMEEMRHIDMVEGDEGRMCINMEWGAFGDDGSLNDIRTEFDQEIDMGSLNPGKQLFEKMISGMYMGELVRLILVKMAKEELLFGGKLSPELLNTGRFETKDISDIEGEKDGIRKAREVLMRLGLDPTQEDCVATHRICQIVSTRSASLCAATLAAVLQRIKENKGEERLRSTIGVDGSVYKKHPHFAKRLHKTVRRLVPGCDVRFLRSEDGSGKGAAMVTAVAYRLADQHRARQKTLEHLQLSHDQLLEVKRRMKVEMERGLSKETHASAPVKMLPTYVCATPDGTEKGDFLALDLGGTNFRVLLVRVRNGKWGGVEMHNKIYAIPQEVMHGTGDELFDHIVQCIADFLEYMGMKGVSLPLGFTFSFPCQQNSLDESILLKWTKGFKASGCEGEDVVTLLKEAIHRREEFDLDVVAVVNDTVGTMMTCGFEDPHCEVGLIVGTGSNACYMEEMRNVELVEGEEGRMCVNMEWGAFGDNGCLDDFRTEFDVAVDELSLNPGKQRFEKMISGMYLGEIVRNILIDFTKRGLLFRGRISERLKTRGIFETKFLSQIESDCLALLQVRAILQHLGLESTCDDSIIVKEVCTVVARRAAQLCGAGMAAVVDRIRENRGLDALKVTVGVDGTLYKLHPHFAKVMHETVKDLAPKCDVSFLQSEDGSGKGAALITAVACRIREAGQR
2 | binds | HMGCS1 (enzyme, UniProt Q01581 1-520) MPGSLPLNAEACWPKDVGIVALEIYFPSQYVDQAELEKYDGVDAGKYTIGLGQAKMGFCTDREDINSLCMTVVQNLMERNNLSYDCIGRLEVGTETIIDKSKSVKTNLMQLFEESGNTDIEGIDTTNACYGGTAAVFNAVNWIESSSWDGRYALVVAGDIAVYATGNARPTGGVGAVALLIGPNAPLIFERGLRGTHMQHAYDFYKPDMLSEYPIVDGKLSIQCYLSALDRCYSVYCKKIHAQWQKEGNDKDFTLNDFGFMIFHSPYCKLVQKSLARMLLNDFLNDQNRDKNSIYSGLEAFGDVKLEDTYFDRDVEKAFMKASSELFSQKTKASLLVSNQNGNMYTSSVYGSLASVLAQYSPQQLAGKRIGVFSYGSGLAATLYSLKVTQDATPGSALDKITASLCDLKSRLDSRTGVAPDVFAENMKLREDTHHLVNYIPQGSIDSLFEGTWYLVRVDEKHRRTYARRPTPNDDTLDEGVGLVHSNIATEHIPSPAKKVPRLPATAAEPEAAVISNGEH

— publication PMC11914573
